These results are taken from PubChem BioAssay AID1487 (National Center for Advancing Translational Sciences (NCATS), 2009).

By AC50 is commonly meant the concentration giving half of the maximal activity seen.

The structures appear in SMILES notation. The list shows a part of the results. The main result of the screen is listed elsewhere. These columns were measured beside it and carry no call. The list favours compounds with an active or inconclusive main result. The note in brackets gives the kind of curve behind each potency; many fits are weak.

The nature of this test: qHTS Assay for Modulators of Lamin A Splicing. As to conditions: HeLa LMNA splicing GFP/RFP minigene ratio, 48 h. In outline: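 S3 HeLa cells stably expressing lamin A-EGFP splicing minigene plus DsRed2, 600 cells/well, 48 h compound exposure at 37C. Laser-scanning cytometry; analysed as GFP (500-530 nm)/RFP (575-640 nm) total intensity ratio; 0.5% DMSO vehicle.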
On the technique in general: In qHTS, concentration-response curves come from the screen itself.

Setting [1] is: measured here: RFP viability control channel.
Where [2] appears, read: measured here: GFP splicing reporter channel.

For `Cc1ccc(NC(=O)CCC(=O)NNC(=O)c2cccc([N+](=O)[O-])c2)cc1C`, the AC50 under setting [1] was 35.5 µM [falling, single point].
As for `O=C(COc1ccccc1F)OCc1cc(=O)n2nc(-c3cccs3)sc2n1`, under setting [1], the AC50 was 0.398 µM [falling, full curve, poor fit].
Still for that read-out and setting: in the case of `CCOc1cc(N2CCOCC2)c(OCC)cc1NC(=O)c1ccc(C)cc1` it was 22.4 µM [rising, partial curve]; in that of `COCCCn1c(SCc2cccc(C(F)(F)F)c2)nc2cc(OC)c(OC)cc2c1=N`, 17.8 µM [falling, single point].
As for `COc1cccc(Oc2ccc(C(F)(F)F)cc2NC(=O)c2cccc(F)c2)c1`, the AC50 was 12.6 µM [rising, partial curve] under setting [2] and 20 µM [rising, single point] under setting [1].
For the molecule `COc1ccc(NC(=O)c2c(NCc3ccc(C)o3)sc3c2CCC(C)C3)c(OC)c1` (stereo unspecified), the AC50 runs as follows: under setting [2], 6.31 µM [falling, partial curve, poor fit]; under setting [1], 3.55 µM [falling, partial curve].
Consider `CC1(C)CC(CC(=O)Nc2ccccc2[N+](=O)[O-])C(=O)O1` (stereo unspecified), for which the AC50 was 0.178 µM [rising, full curve, poor fit] under setting [2] and 0.141 µM [rising, full curve, poor fit] under setting [1].
In the case of `COc1ccc(OC)c(NC(=O)CSc2ccnc(=O)[nH]2)c1`, under setting [2], the AC50 is 0.00447 µM [rising, full curve, poor fit].
Regarding `Cc1ccc(Nc2nc(-c3c(C)nc4ncccn34)cs2)cc1`, the AC50 reads like this: under setting [2], 0.282 µM [falling, full curve]; under setting [1], 0.251 µM [falling, full curve].
With `NS(=O)(=O)c1ccc(CNC(=O)CSc2ccccc2)cc1`, the AC50 was 20 µM [falling, partial curve, poor fit] under setting [2] and 1.12 µM [falling, full curve, poor fit] under setting [1].
As for `O=C(CN1CCC(C(=O)c2ccc(F)cc2)CC1)Nc1ccc(F)cc1`, the AC50 under setting [1] was 17.8 µM [rising, single point].
Still for that read-out and setting: the result for `CCOc1cc(N2CCOCC2)c(OCC)cc1NC(=O)COc1cccc2cccnc12` reads 31.6 µM [rising, single point].
For `COC(=O)c1c(-c2ccc(Cl)cc2)noc1N1CCN(c2ccc(OC)cc2)CC1`, the AC50 reads like this: under setting [2], 10 µM [falling, partial curve]; under setting [1], 35.5 µM [falling, single point].
With `CC(=O)c1ccc(NC(=O)C2CC(=O)N(C(C)C)C2)cc1` (stereo unspecified), under setting [1], the AC50 is 35.5 µM [falling, single point].
Still for that read-out and setting: in the case of `CCCOc1ccc(C(=O)c2nc3c(n2O)CCCC3)cc1` it was 12.6 µM [rising, partial curve].
